From the supplement of paper PMC12823440, “Inhibitors supercharge kinase turnover through native proteolytic circuits” (Nature, 2025)
The other results are listed elsewhere or left out. The calls rarely recur for the same compound in another form.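 Kinases were expressed as nanoluciferase fusions in K562 cells and luminescence was read every 4 h between 2 and 18 h as percent of control, DMSO set to 100% and a positive control to 0%. A time point counts as decreased when the signal drops significantly (2 sigma). The hit call is the authors' own, does not follow from the count of time points alone, and its rule is not shown.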

The chains behind the UniProt entries cited, without tags or fusion partners. Where a name states a change or a piece, a line headed by the entry shows the natural chain unless it says otherwise.
UniProt Q6PHR2: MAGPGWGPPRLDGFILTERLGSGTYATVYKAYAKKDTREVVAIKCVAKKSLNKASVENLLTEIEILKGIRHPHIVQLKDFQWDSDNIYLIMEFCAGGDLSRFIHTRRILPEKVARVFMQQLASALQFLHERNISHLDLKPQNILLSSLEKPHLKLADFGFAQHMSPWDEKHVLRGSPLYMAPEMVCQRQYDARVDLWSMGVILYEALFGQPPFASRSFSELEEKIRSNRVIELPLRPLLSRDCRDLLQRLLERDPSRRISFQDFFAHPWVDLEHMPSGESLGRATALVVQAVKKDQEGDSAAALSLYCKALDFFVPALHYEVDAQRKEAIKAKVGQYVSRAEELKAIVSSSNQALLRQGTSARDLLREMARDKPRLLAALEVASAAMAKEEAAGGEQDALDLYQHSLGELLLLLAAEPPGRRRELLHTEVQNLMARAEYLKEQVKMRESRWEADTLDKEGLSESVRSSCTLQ
UniProt P49840: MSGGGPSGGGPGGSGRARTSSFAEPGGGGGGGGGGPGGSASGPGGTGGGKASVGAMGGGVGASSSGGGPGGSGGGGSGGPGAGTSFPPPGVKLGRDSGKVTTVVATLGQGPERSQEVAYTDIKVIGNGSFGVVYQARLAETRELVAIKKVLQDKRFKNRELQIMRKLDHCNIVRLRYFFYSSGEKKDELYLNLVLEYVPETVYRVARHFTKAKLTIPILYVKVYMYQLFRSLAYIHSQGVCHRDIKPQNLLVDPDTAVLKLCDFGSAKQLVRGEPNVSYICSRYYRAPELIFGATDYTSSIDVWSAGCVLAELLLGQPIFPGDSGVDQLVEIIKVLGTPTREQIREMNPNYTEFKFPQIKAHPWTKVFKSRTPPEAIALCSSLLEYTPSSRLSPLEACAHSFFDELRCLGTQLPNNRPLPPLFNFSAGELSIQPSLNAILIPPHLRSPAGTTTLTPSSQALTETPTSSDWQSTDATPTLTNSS
UniProt Q13546: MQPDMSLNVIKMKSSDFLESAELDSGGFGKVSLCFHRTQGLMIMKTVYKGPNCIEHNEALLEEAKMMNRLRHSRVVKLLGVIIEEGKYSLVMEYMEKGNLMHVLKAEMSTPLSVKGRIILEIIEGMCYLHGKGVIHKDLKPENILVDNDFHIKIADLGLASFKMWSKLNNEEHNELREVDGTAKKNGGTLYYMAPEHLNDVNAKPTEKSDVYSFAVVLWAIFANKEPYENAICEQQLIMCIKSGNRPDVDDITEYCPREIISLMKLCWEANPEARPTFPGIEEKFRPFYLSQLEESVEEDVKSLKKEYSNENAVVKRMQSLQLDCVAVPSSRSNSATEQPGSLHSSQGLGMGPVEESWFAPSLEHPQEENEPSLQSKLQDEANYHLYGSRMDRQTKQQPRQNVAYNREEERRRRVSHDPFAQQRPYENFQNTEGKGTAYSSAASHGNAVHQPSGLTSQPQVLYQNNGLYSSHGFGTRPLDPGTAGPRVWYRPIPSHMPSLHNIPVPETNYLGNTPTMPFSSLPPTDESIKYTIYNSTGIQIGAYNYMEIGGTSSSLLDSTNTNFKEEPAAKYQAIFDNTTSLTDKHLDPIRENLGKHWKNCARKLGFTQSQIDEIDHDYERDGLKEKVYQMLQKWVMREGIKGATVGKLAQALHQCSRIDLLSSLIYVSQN
UniProt Q16620, whole entry, looked up: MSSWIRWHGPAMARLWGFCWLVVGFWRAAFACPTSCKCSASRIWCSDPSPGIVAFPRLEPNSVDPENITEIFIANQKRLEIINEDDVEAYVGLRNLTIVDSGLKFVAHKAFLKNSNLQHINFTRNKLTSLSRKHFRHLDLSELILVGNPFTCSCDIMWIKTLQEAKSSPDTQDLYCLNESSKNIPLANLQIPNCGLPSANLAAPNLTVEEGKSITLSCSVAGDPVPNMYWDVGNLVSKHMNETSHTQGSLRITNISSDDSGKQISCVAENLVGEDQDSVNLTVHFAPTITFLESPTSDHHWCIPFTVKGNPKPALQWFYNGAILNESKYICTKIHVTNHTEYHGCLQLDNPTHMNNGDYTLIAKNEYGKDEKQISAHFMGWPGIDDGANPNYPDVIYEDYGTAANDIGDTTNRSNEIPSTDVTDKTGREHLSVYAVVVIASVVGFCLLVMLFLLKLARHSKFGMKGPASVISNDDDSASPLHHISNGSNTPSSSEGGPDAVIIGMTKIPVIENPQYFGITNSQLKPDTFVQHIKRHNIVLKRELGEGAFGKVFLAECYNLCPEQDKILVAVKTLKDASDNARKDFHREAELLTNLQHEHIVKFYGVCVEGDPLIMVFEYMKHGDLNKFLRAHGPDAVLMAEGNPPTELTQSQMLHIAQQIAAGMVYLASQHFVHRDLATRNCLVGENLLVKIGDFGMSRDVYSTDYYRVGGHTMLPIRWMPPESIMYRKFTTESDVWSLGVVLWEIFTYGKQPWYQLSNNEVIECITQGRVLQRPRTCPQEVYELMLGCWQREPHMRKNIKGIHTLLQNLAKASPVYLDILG
UniProt Q15208: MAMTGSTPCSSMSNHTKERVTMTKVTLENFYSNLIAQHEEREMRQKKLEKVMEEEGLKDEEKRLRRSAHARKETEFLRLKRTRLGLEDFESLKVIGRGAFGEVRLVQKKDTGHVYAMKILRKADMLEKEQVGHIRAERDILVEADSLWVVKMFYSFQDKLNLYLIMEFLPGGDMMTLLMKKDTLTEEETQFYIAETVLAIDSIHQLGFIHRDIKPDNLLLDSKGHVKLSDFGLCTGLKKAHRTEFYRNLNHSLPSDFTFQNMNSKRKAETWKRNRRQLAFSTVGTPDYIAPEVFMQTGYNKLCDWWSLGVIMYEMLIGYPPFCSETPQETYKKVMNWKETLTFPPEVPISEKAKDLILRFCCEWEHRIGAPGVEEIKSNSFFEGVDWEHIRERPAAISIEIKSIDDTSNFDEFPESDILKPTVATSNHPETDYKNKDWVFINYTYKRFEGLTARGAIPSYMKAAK
UniProt Q14289, whole entry, looked up: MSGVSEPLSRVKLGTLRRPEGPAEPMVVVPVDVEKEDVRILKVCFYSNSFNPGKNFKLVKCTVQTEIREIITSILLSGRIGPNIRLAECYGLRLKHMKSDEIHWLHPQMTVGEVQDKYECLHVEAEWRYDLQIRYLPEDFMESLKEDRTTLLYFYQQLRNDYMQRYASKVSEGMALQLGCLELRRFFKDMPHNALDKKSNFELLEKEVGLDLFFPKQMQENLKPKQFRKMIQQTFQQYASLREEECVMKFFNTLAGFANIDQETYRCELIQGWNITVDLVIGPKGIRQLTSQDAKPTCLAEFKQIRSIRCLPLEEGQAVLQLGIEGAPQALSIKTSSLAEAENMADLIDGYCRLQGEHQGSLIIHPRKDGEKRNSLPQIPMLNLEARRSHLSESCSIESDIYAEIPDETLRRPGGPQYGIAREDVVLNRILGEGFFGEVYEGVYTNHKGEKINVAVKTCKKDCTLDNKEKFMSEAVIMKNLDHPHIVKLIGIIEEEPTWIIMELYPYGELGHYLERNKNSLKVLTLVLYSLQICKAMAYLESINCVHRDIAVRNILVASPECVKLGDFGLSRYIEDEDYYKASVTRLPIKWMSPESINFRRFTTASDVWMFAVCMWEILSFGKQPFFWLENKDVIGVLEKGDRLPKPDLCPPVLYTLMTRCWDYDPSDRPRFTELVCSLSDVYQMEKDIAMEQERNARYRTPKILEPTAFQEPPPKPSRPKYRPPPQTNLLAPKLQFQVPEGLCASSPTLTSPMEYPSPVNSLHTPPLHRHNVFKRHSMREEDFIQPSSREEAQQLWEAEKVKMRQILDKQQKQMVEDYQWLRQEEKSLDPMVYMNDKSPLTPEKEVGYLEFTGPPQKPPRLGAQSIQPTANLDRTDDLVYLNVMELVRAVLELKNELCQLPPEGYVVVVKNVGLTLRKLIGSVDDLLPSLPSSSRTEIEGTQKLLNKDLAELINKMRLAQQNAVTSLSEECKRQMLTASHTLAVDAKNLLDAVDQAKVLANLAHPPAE
UniProt P31152, whole entry: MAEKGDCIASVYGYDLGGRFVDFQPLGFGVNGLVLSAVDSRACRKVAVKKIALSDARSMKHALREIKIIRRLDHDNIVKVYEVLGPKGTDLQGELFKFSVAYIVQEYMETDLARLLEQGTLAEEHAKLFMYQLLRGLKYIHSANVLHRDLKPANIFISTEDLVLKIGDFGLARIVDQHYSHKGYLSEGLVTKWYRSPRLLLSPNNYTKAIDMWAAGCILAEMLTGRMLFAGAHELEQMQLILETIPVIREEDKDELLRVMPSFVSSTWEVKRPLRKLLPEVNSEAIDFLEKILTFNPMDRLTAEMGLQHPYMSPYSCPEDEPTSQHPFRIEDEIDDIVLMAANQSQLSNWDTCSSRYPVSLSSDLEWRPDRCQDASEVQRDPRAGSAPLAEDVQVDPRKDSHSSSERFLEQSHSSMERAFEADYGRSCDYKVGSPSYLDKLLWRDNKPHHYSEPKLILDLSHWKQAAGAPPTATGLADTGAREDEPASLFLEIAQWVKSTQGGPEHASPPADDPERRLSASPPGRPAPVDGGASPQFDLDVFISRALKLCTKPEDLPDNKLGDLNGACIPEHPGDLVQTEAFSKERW
UniProt P07333, whole entry: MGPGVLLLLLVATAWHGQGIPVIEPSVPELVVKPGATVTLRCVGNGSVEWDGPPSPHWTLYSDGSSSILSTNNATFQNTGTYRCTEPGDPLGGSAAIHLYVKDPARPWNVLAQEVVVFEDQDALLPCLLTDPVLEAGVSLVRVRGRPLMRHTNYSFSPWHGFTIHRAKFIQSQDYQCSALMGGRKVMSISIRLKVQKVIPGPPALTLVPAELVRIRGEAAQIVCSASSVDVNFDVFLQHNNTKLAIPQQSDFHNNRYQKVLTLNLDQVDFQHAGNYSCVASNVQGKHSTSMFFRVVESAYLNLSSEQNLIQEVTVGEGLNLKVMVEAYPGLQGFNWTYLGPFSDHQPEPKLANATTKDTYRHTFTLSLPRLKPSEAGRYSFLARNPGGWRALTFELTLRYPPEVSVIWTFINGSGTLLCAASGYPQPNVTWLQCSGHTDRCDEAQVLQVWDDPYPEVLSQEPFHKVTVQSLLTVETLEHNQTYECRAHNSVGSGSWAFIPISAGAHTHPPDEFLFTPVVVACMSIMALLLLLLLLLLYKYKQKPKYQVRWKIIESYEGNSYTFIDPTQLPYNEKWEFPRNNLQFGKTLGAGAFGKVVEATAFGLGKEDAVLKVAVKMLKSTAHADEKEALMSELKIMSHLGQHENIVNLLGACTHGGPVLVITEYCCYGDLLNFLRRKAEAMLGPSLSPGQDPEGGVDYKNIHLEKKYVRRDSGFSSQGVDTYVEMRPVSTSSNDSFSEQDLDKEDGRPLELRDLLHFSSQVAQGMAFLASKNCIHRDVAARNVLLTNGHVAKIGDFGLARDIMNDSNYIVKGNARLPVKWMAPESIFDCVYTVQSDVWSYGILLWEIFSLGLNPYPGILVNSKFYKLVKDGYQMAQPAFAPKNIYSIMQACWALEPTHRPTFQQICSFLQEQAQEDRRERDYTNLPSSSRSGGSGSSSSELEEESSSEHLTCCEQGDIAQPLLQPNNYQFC
UniProt P48730: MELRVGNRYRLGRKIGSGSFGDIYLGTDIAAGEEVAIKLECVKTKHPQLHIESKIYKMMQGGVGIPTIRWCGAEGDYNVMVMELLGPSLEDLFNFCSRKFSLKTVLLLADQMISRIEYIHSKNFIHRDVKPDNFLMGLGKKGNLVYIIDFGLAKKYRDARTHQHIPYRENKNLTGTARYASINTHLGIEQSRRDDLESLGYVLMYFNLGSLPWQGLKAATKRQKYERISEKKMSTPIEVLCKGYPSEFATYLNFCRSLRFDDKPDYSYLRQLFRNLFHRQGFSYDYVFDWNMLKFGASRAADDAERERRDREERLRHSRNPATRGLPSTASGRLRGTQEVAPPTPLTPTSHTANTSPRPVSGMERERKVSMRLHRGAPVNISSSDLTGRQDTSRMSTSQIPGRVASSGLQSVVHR
UniProt P53350, whole entry: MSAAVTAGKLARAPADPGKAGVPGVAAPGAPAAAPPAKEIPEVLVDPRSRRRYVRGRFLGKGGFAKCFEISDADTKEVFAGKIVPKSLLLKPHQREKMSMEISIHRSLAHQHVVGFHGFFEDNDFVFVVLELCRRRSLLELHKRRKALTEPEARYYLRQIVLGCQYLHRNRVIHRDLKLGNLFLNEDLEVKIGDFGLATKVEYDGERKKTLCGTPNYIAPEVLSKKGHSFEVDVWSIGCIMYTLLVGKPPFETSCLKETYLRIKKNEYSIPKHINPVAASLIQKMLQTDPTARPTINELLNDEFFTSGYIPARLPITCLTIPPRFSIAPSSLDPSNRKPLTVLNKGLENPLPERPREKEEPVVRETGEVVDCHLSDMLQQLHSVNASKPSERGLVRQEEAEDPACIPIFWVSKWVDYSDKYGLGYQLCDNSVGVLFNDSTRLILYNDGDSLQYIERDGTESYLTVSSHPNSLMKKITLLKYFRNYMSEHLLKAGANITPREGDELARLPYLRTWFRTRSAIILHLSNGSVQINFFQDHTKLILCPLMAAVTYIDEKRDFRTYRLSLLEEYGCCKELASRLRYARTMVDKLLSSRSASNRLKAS

Columns and labels:
Assay in all cases: number of time points (of 5) at which kinase-Nluc abundance scored as decreased, DMSO-normalised (count); higher = more persistent destabilization
[1] = compound: COc1cc2c(-c3cnn4cc(N5CCC(N6CCN(C)CC6)CC5)cnc34)ccnc2cc1F; details: 10 µM; K562; 2-18 h
Cediranib (maleate) = compound: COc1cc2c(Oc3ccc4[nH]c(C)cc4c3F)ncnc2cc1OCCCN1CCCC1 [Cediranib (maleate)]; details: 2.5 µM; K562; 2-18 h
Cediranib = compound: COc1cc2c(Oc3ccc4[nH]c(C)cc4c3F)ncnc2cc1OCCCN1CCCC1 [Cediranib]; details: 2.5 µM; K562; 2-18 h
[2] = compound: COc1cc2c(cc1OC)-c1c(C)c3ccc(OC)c(OC)c3c[n+]1CC2 [Dehydrocorydaline (chloride)]; details: 10 µM; K562; 2-18 h
Dehydrocorydaline = compound: COc1cc2c(cc1OC)-c1c(C)c3ccc(OC)c(OC)c3c[n+]1CC2 [Dehydrocorydaline]; details: 10 µM; K562; 2-18 h
[3] = compound: COc1cc2nccc(Nc3cc(OC)c(OC)c(OC)c3)c2cc1OC [GAK inhibitor 49 (hydrochloride)]; details: 10 µM; K562; 2-18 h
GAK inhibitor 49 = compound: COc1cc2nccc(Nc3cc(OC)c(OC)c(OC)c3)c2cc1OC [GAK inhibitor 49]; details: 10 µM; K562; 2-18 h
Cabozantinib (S-malate) = compound: COc1cc2nccc(Oc3ccc(NC(=O)C4(C(=O)Nc5ccc(F)cc5)CC4)cc3)c2cc1OC [Cabozantinib (S-malate)]; details: 10 µM; K562; 2-18 h
Cabozantinib = compound: COc1cc2nccc(Oc3ccc(NC(=O)C4(C(=O)Nc5ccc(F)cc5)CC4)cc3)c2cc1OC [Cabozantinib]; details: 2.5 µM; K562; 2-18 h
KN-93 (hydrochloride) = compound: COc1ccc(S(=O)(=O)N(CCO)c2ccccc2CN(C)C/C=C/c2ccc(Cl)cc2)cc1 [KN-93 (hydrochloride)]; details: 2.5 µM; K562; 2-18 h
KN-93 (phosphate) = compound: COc1ccc(S(=O)(=O)N(CCO)c2ccccc2CN(C)C/C=C/c2ccc(Cl)cc2)cc1 [KN-93 (phosphate)]; details: 2.5 µM; K562; 2-18 h
KN-92 (hydrochloride) = compound: COc1ccc(S(=O)(=O)Nc2ccccc2CN(C)C/C=C/c2ccc(Cl)cc2)cc1 [KN-92 (hydrochloride)]; details: 2.5 µM; K562; 2-18 h
KN-92 (phosphate) = compound: COc1ccc(S(=O)(=O)Nc2ccccc2CN(C)C/C=C/c2ccc(Cl)cc2)cc1 [KN-92 (phosphate)]; details: 2.5 µM; K562; 2-18 h
AX-024 hydrochloride = compound: COc1ccc2c(c1)C(c1ccc(F)cc1)=C(CN1CCCC1)CO2 [AX-024 hydrochloride]; details: 10 µM; K562; 2-18 h
[4] = compound: COc1ccc2c(c1)C(c1ccc(F)cc1)=C(CN1CCCC1)CO2; details: 10 µM; K562; 2-18 h
Ilaprazole (sodium) = compound: COc1ccnc(C[S+]([O-])c2nc3cc(-n4cccc4)ccc3[nH]2)c1C [Ilaprazole (sodium)]; details: 10 µM; K562; 2-18 h
Ilaprazole = compound: COc1ccnc(C[S+]([O-])c2nc3cc(-n4cccc4)ccc3[nH]2)c1C [Ilaprazole]; details: 10 µM; K562; 2-18 h
PLX5622 (hemifumarate) = compound: COc1ncc(F)cc1CNc1ccc(Cc2c[nH]c3ncc(C)cc23)c(F)n1 [PLX5622 (hemifumarate)]; details: 10 µM; K562; 2-18 h
[5] = compound: COc1ncc(F)cc1CNc1ccc(Cc2c[nH]c3ncc(C)cc23)c(F)n1; details: 10 µM; K562; 2-18 h
[6] = compound: CS(=O)(=O)N1CCN(Cc2cc3nc(-c4cccc5[nH]ncc45)nc(N4CCOCC4)c3s2)CC1 [Pictilisib (dimethanesulfonate)]; details: 10 µM; K562; 2-18 h

Measured: number of time points

ERBB4_R711C (clone: ERBB4_mut) (UniProt Q15303)
2: GAK inhibitor 49
3: Cabozantinib
4: Cabozantinib (S-malate)
0: all other assays above

PDPK1 (UniProt O15530)
4: [3] | GAK inhibitor 49 | Cabozantinib (S-malate) | Cabozantinib
0: all other assays above

ULK3 (UniProt Q6PHR2)
3: [3] | Cabozantinib
5: Cabozantinib (S-malate)
2: GAK inhibitor 49
0: all other assays above

PRKAA1 (UniProt Q13131)
1: Cabozantinib (S-malate)
3: Cabozantinib
0: all other assays above

SPHK1 (UniProt Q9NYA1)
1: Cabozantinib (S-malate)
0: all other assays above

GSK3A (UniProt P49840)
0: all assays above

FGFR3 (UniProt P22607)
0: all assays above

CDK5 (UniProt Q00535)
0: all assays above

ABL1 (UniProt P00519)
4: GAK inhibitor 49 | Cabozantinib (S-malate) | [6]
3: [3]
2: Cabozantinib
0: all other assays above

HER2 (UniProt P04626)
3: [3] | GAK inhibitor 49
1: Cabozantinib
2: Cabozantinib (S-malate)
0: all other assays above

ZAP70 (UniProt P43403)
0: all assays above

RIPK1 (UniProt Q13546)
2: GAK inhibitor 49 | Cabozantinib (S-malate) | Cabozantinib
0: all other assays above

CSNK1A1 (UniProt P48729)
1: Cabozantinib
0: all other assays above

BRAF_V600E
2: Cabozantinib
4: Cabozantinib (S-malate)
1: [3] | GAK inhibitor 49
0: all other assays above

NTRK2 (UniProt Q16620)
0: all assays above

STK38 (UniProt Q15208)
1: [3] | Cabozantinib (S-malate) | Cabozantinib
0: all other assays above

PTK2B (UniProt Q14289)
1: Cabozantinib
0: all other assays above

MAP4K2 (UniProt Q12851)
0: all assays above

MAPK4 (UniProt P31152)
1: Cabozantinib (S-malate)
0: all other assays above

BLK (UniProt P51451)
2: GAK inhibitor 49
0: all other assays above

AURKA (UniProt O14965)
1: Cabozantinib (S-malate) | Cabozantinib | [6]
0: all other assays above

CSF1R (UniProt P07333)
1: Cabozantinib (S-malate) | Cabozantinib
0: all other assays above

PDGFRB (UniProt P09619)
4: Cabozantinib (S-malate) | Cabozantinib
0: all other assays above

MAP2K1 (UniProt Q02750)
0: all assays above

CAMK2A (UniProt Q9UQM7)
0: all assays above

CSNK1D (UniProt P48730)
1: Cabozantinib
0: all other assays above

CDK10 (UniProt Q15131)
0: all assays above

PLK1 (UniProt P53350)
3: Cabozantinib
2: Cabozantinib (S-malate)
0: all other assays above

SRC (UniProt P12931)
0: all assays above

JAK1 (UniProt P23458)
1: Cabozantinib
3: Cabozantinib (S-malate)
0: all other assays above

Reprinted at random: 2 records from the list
CSNK1D (UniProt P48730)
1: Cabozantinib
0: all other assays above

SRC (UniProt P12931)
0: all assays above
